Data published in patent US20210163308A1, “COMPOSITIONS AND METHODS FOR THE MODULATION OF CYTOKINES” (GALLEON LABS LLC, priority 2018, published 2021).

Tested on: primary human cells (HDFSAg, HDF3CGF, KF3CT, HDFLPS systems)
Test: Study CSM003-01-b: biomarker readouts in primary human cell systems, compounds in PBS
Settings: p<0.01, outside of the envelope, effect size of at least 20%

| Compound | number of annotated biomarkers |
| --- | --- |
| O.O.O.O.O.O.[Cl-].[Cl-].[Sr+2] [Strontium chloride hexahydrate] | 6 |
| O=[N+]([O-])[O-].O=[N+]([O-])[O-].[Sr+2] [Strontium nitrate, Strontium Nitrate] | 4 |
